Among the data in publication PMC1635730 are binding values, retold here.

Protein sequences, listed by entry. Tags and fused reporters are not part of them. Residues count along the entry.
UniProt P05088, residues 22-275: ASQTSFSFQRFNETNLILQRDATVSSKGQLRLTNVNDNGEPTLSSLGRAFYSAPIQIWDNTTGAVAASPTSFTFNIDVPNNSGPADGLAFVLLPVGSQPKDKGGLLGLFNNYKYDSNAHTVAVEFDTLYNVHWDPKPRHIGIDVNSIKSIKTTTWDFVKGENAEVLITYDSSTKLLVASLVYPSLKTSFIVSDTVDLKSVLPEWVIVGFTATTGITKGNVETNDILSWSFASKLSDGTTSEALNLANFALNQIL

The target in this assay is native MUC16 partially purified from OVCAR-3 cell culture media (human (endogenous in OVCAR-3)) (UniProt Q8WXI7). Put plainly: far-Western, overlay or dot blot; MUC16 (200 U of CA125/blot) on PVDF, blocked with BSA, incubated with biotinylated lectins (10 ug/ml) for 2 h at 25°C, then probed with recombinant bacterial mesothelin; detected with MN antibody; both purified.

These are yes or no findings as the source states them, for the method shown. A result given as binding can be weak or reduced; the word gives no strength.

Consider “erythroagglutinating phytohemagglutinin (from UniProt P05088 22-275)”, for which the binding entry is recorded as “binds”.
